We go through 1 substance from publication PMC8233316.

Sequences of proteins named here, by UniProt entry; tags and fusion partners are left off.
UniProt Q8C753: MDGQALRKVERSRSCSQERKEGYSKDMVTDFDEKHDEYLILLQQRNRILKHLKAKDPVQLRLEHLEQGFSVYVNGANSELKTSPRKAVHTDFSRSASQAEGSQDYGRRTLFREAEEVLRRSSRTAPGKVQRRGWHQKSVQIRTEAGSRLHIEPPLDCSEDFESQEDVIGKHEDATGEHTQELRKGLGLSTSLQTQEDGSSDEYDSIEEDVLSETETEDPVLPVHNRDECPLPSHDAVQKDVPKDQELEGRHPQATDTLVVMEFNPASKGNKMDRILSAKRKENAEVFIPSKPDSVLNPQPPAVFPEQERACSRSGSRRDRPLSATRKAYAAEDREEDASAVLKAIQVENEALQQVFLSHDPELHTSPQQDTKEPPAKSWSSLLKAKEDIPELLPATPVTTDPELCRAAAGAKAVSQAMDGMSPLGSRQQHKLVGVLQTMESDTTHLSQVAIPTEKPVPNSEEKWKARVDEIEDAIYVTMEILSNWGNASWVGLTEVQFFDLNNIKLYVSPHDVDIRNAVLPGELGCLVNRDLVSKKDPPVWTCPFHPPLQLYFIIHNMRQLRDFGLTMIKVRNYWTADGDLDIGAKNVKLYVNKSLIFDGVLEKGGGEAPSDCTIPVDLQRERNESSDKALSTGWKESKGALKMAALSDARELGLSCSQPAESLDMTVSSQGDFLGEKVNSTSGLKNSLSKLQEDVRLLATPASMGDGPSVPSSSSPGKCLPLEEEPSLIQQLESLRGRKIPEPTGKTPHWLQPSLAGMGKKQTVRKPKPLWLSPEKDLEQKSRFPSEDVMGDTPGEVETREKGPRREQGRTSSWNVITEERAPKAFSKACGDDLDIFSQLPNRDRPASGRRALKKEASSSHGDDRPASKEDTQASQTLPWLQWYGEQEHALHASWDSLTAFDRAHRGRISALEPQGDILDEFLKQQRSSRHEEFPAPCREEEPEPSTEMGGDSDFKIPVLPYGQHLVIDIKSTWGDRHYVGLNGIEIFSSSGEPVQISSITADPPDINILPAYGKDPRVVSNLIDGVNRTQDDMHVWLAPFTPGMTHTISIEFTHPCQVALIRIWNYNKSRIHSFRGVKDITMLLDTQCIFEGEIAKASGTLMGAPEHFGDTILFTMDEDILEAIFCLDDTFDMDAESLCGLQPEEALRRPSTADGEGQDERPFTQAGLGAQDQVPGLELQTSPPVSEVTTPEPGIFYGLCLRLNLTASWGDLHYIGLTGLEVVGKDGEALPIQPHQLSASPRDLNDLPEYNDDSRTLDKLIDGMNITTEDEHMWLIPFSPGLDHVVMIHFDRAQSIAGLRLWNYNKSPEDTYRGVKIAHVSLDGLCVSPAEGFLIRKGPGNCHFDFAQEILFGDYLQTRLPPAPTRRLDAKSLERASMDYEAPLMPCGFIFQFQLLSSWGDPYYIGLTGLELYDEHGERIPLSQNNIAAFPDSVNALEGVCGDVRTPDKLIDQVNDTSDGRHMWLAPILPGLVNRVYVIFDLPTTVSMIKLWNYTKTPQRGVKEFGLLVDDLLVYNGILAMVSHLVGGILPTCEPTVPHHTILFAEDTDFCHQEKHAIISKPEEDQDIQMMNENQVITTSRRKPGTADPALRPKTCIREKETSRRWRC

No constants are given. Whether binding was seen depends on the method and setting. In cells and extracts the contact can be indirect. These calls come from enrichment with a bait or labelling near it, and not all partners need be listed.

This test deals with T1, CFAP161 (mouse (endogenous in testis)) (UniProt Q6P8Y0).
T1 sequence: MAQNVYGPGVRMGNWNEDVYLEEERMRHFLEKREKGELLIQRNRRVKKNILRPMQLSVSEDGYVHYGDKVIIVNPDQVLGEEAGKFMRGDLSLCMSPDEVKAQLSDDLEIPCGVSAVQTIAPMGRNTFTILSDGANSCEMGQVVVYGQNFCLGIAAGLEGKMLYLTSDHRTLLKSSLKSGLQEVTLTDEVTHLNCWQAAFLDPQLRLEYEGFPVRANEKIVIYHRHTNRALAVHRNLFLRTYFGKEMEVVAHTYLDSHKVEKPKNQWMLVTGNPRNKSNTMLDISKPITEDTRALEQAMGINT
In words: affinity purification with mass spectrometry; CFAP161 immunoprecipitated from wild type mouse testis with epididymis lysate with affinity-purified alpha-CFAP161 pII crosslinked to resin (Pierce crosslink IP kit); rabbit IgG as control; LC-MS/MS.

Regarding “KIAA0556 (Katanin-interacting protein KATNIP) (from UniProt Q8C753 1-1610)”, the binding entry is reported as “binds”.
